This note sets out measurements from article doi:10.1101/2025.10.24.684417.

By UniProt entry, the sequences of proteins in these tests, tags left out.
UniProt Q13761: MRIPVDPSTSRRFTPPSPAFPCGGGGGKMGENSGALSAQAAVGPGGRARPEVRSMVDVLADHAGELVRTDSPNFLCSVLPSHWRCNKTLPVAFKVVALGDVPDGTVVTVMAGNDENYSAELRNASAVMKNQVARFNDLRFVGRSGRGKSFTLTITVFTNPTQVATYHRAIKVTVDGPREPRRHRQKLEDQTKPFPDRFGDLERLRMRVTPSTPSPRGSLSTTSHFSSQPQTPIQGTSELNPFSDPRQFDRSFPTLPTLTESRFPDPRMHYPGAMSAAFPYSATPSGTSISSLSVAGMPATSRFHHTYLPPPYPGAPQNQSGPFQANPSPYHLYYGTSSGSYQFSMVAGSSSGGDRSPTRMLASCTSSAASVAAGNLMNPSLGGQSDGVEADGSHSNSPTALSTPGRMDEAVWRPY

This assay deals with RUNX3 (as detected in the proximity ligation assays) (UniProt Q13761). As to the kind of experiment: proximity ligation.

No constants are given. Whether binding was seen depends on the method and setting. In cells and extracts the contact can be indirect. Some binding calls cover weakened binding; strength is not graded here.

B1: TLE5 (protein, UniProt Q08117 1-197)
chain: MMFPQSRHSGSSHLPQQLKFTTSDSCDRIKDEFQLLQAQYHSLKLECDKLASEKSEMQRHYVMYYEMSYGLNIEMHKQAEIVKRLNGICAQVLPYLSQEHQQQVLGAIERAKQVTAPELNSIIRQQLQAHQLSQLQALALPLTPLPVGLQPPSLPAVSAGTGLLSLSALGSQAHLSKEDKNGHDGDTHQEDDGEKSD
As for B1, the binding entry was “binds”.
